At least one structure is not confirmed: it was looked up by name or label, or the drawing left a doubt.
Conditions: for log k′2 (capacity factor extrapolated to 0% methanol): Average of at least three determinations on different LC-ABZ columns, 20 mM MOPS pH 7.4/methanol with octanol; for Residual: logPoct minus ElogPoct
Method: The mobile phase consisted, in all cases, of 20 mM MOPS buffer at pH 7.4, and methanol in varying proportions from 70 to 15% v/v. […] The capacity factors data (k′=(tR−t0)/t0) obtained at various amounts of methanol were then extrapolated to 0% methanol and reported as log k′w, using a linear procedure. […] Injections of pure methanol were used to determine t0, i.e. the dead time, while tR has the usual meaning of the retention time for the analyte.
All the chromatographic runs were performed on a HP-1100 HPLC ChemStation at the ambient temperature. The columns used were Supelcosil LC-ABZ, 5μm, 4.6×50 mm. […] Columns having different silica bond lots were tested to ensure reproducibility. Samples were dissolved in 1:1 methanol/water at a concentration of 10-30 μg/mL. The flow rate was 0.5, 1 or 2 mL/min, depending on the lipophilicity range. Three lipophilicity ranges were established using, in all cases, three points for the extrapolation to k′w, as described in the table below.
The samples were placed in the appropriate range by estimating their lipophilicity via computed values, or by prior experience with a given class. In each case the entire group of samples was run before the column is equilibrated to the next condition, in an automated fashion, and the initial estimation need not be very accurate. The data analysis was automated via in-house software yielding the ElogPoct values, directly from the chromatographic data files.

C[C@@H]1C[C@H]2[C@@H]3CCC4=CC(=O)C=C[C@]4(C)[C@@]3(F)[C@@H](O)C[C@]2(C)[C@@]1(O)C(=O)CO [Dexamethasone]
log k′2 (capacity factor extrapolated to 0% methanol): 2.03
Residual: −0.56

C[C@]12CC[C@@H]3c4ccc(O)cc4CC[C@H]3[C@@H]1CC[C@@H]2O [Estradiol]
log k′2 (capacity factor extrapolated to 0% methanol): 3.34
Residual: 0.17
